Measured values: PMC9585016
These are yes or no findings as the source states them, for the method shown. Binding seen in cells or lysates may run through a third protein. Some binding calls cover weakened binding; strength is not graded here.

Chains of the proteins cited; added tags and fusions are not shown.
UniProt Q9DBG3: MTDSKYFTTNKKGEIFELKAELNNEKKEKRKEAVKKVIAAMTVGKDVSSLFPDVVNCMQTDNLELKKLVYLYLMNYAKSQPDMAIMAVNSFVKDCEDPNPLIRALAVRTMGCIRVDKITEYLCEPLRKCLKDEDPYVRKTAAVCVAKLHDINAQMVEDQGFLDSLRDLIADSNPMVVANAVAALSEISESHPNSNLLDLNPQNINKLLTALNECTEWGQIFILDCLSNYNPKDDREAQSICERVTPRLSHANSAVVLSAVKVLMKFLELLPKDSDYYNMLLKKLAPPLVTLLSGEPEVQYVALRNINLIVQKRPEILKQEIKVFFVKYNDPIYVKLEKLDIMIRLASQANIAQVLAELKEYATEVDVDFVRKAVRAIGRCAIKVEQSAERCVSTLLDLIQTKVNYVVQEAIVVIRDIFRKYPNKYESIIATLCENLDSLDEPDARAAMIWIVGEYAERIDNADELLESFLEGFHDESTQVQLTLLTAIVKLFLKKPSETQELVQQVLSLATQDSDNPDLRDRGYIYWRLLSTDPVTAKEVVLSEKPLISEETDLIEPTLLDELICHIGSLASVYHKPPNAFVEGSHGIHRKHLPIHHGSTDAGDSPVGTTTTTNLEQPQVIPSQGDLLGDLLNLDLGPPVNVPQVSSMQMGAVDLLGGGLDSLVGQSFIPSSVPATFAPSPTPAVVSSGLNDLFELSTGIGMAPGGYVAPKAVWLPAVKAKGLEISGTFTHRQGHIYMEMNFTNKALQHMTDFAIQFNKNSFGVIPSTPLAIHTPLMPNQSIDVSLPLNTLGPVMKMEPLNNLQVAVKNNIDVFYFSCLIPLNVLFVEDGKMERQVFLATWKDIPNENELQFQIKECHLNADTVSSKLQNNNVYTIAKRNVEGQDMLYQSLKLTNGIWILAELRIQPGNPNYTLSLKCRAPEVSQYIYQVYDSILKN
UniProt P18760: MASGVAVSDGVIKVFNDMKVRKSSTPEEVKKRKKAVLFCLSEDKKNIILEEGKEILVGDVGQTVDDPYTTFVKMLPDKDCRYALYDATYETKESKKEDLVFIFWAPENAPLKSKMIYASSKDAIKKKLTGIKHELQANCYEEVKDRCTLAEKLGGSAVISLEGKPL
UniProt P45592: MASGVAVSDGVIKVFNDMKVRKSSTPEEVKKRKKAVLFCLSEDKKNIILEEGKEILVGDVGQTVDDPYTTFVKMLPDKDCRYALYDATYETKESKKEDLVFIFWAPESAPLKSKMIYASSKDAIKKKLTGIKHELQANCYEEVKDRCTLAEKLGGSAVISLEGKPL

How the values were obtained:
[1] = target: β2-adaptin subunit of adaptor protein 2 (AP2), endogenous in mouse hippocampus (mouse (endogenous in hippocampus)) (UniProt Q9DBG3); experiment: co-IP; mouse hippocampal homogenate (50 ug) in RIPA buffer (200 mM NaCl, 10 mM EDTA, 0.5% NP-40, 0.1% SDS); precipitated with mouse monoclonal CAP1 antibody or β2-adaptin antibody on Protein A magnetic beads; blotted for cofilin1, CAP1, β2-adaptin
[2] = target: T1, CAP1, endogenous in rat hippocampal neurons (rat (endogenous in primary hippocampal neurons)) (UniProt Q08163); experiment: proximity ligation; Duolink PLA on fixed, permeabilised DIV15 rat primary hippocampal neurons with antibodies against endogenous CAP1 and cofilin1; single antibodies as controls
T1 sequence: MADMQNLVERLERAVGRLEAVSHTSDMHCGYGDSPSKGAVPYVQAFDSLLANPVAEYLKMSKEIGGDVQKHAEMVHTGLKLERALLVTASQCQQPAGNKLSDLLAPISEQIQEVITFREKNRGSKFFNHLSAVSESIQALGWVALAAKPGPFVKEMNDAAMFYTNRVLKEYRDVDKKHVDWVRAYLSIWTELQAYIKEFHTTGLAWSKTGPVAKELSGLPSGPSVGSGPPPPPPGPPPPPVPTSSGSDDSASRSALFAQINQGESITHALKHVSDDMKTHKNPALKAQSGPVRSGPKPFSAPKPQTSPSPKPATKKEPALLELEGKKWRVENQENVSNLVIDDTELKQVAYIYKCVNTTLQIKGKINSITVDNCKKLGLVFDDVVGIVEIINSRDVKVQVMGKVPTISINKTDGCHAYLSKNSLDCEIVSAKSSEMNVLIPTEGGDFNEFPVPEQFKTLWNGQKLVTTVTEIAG

| Substance | binding [1] | binding [2] |
| --- | --- | --- |
| cofilin1, endogenous in mouse hippocampus (from UniProt P18760 1-166) | no binding |  |
| cofilin1, endogenous in rat hippocampal neurons (from UniProt P45592 1-166) |  | binds |
